Assay results published in PubChem BioAssay AID651640 (Broad Institute, 2012).
Hit rate of the full screen: of about 350,000 compounds, about 6,000 (1.7%) were called active. Inconclusive results, whose numbers are uncertain, are shown with a selection of clear calls. Rule as the data show it: active = CPE inhibition above about 20% (passing the limit was not always enough); inconclusive = no clear call, values can overlap the other calls; tested in BHK-21 cells.

test: protection of cells from dengue 2 killing – plate reader, single concentration, primary screen (AID 651640); settings: DENV2-infected cells, cytopathic effect rescue, at 9.99 µM, hits give high values;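 also: 0% = median of neutral control wells and 100% = median of positive control wells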

Compound	CPE inhibition
C[C@@H]1CN([C@@H](C)CO)C(=O)c2cc(NS(=O)(=O)c3cn(C)cn3)ccc2O[C@@H](C)CCCCO[C@@H]1CN(C)C(=O)Cc1ccccc1	active: 63.2%
Cc1noc(C)c1S(=O)(=O)N(C)C[C@@H]1OCc2cnnn2CCCC(=O)N([C@@H](C)CO)C[C@@H]1C	inconclusive: 35.2%
Cc1ccc(S(=O)(=O)N2[C@@H](c3ccc(Br)cc3)C(C(=O)O)=CC[C@H]2c2ccc(C(C)C)cc2)cc1	active: 23.3%
CCCCOc1ccc(C(=O)Nc2ccc(CN3CCOCC3)cc2)cc1	inconclusive: 38.4%
CCC(Cc1ccccc1)NC(=O)CN(C)S(=O)(=O)c1ccc2c(c1)c(=O)n(C)c(=O)n2C (stereo unspecified)	inconclusive: 28%
COc1ccc2c3c([nH]c2c1)[C@H](CO)N(Cc1cccc(F)c1)CC31CCN(CC2CC2)CC1	inactive: -32.6%
Cc1ccc(OCCn2cnc3cc([N+](=O)[O-])ccc3c2=O)cc1	inconclusive: 24.3%
CSc1ccccc1NC(=O)c1cc(-c2ccc3c(c2)OCO3)on1	inconclusive: 20.7%
C[C@H](O)C#Cc1ccc2c(c1)O[C@H](CN(C)Cc1ccc(-c3ccccc3)cc1)[C@@H](C)CN([C@@H](C)CO)S2(=O)=O	inactive: 13.7%
COc1cc(NC(=O)c2cccs2)c(C(=O)OCC(=O)c2cc(C)n(-c3ccc(F)cc3)c2C)cc1OC	inconclusive: 30.8%
CC(=O)c1cnc(-c2ccccn2)s1	inconclusive: 24%
O=C(OCc1nc2scc(-c3ccccc3)c2c(=O)[nH]1)c1ccco1	inconclusive: 25.5%
CCC1=C(OC(=O)N(CC)CC)N2C(=O)OC(=NCCOC)[C@]2(Cc2ccccc2)[C@H]2C1=CC[C@H]1C(=O)NC(=O)[C@H]12	inconclusive: 32%
O=C(CN1CCN(c2ccc(O)cc2)CC1)Nc1ccccc1C(=O)NCCc1ccccc1	inactive: -4.52%
COc1cc(NC(=O)Nc2nc(C(N)CCc3ccccc3)cs2)cc(OC)c1OC (stereo unspecified)	inactive: -0.228%
C[C@H]1CN([C@@H](C)CO)C(=O)c2cc(NS(=O)(=O)c3cccs3)ccc2O[C@@H]1CN(C)S(=O)(=O)c1ccc(Cl)cc1	inconclusive: 24.5%
Cc1ccc(C(C)C)cc1OCCn1cncn1	inactive: 2.69%
CN1CCCCN2[C@H](C1)[C@H](c1ccc(-c3ccc(F)cc3)cc1)[C@@H]2CO	inconclusive: 32.4%
CCC1CCC2(CC1)NC(=O)N(CC(=O)NCc1ccc(Cl)cc1)C2=O (stereo unspecified)	inconclusive: 20.4%
O=C(CSc1nc(Nc2ccccc2)nc(N2CCOCC2)n1)Nc1cc(Cl)ccc1O	inconclusive: 21.3%
Fc1cccc(CNc2ncnc3ccc(-c4ccc5c(c4)OCO5)cc23)c1	inconclusive: 27.9%
COc1ccc(NC(=O)Nc2ccc3c(c2)CC(=O)N([C@H](C)CO)C[C@H](C)[C@H](CN(C)C(=O)NC2CCCCC2)O3)cc1	active: 29.3%
CCC(C)[C@H](NC(=O)[C@@H]1Cc2ccccc2CN1)C(=O)NCc1ccc(OC)cc1 (stereo partly specified)	inconclusive: 35%

8 entries from above in a different format.

| Compound | CPE inhibition |
| --- | --- |
| C[C@@H]1CN([C@@H](C)CO)C(=O)c2cc(NS(=O)(=O)c3cn(C)cn3)ccc2O[C@@H](C)CCCCO[C@@H]1CN(C)C(=O)Cc1ccccc1 | active: 63.2% |
| Cc1ccc(OCCn2cnc3cc([N+](=O)[O-])ccc3c2=O)cc1 | inconclusive: 24.3% |
| CSc1ccccc1NC(=O)c1cc(-c2ccc3c(c2)OCO3)on1 | inconclusive: 20.7% |
| C[C@H](O)C#Cc1ccc2c(c1)O[C@H](CN(C)Cc1ccc(-c3ccccc3)cc1)[C@@H](C)CN([C@@H](C)CO)S2(=O)=O | inactive: 13.7% |
| CC(=O)c1cnc(-c2ccccn2)s1 | inconclusive: 24% |
| CCC1=C(OC(=O)N(CC)CC)N2C(=O)OC(=NCCOC)[C@]2(Cc2ccccc2)[C@H]2C1=CC[C@H]1C(=O)NC(=O)[C@H]12 | inconclusive: 32% |
| Cc1ccc(C(C)C)cc1OCCn1cncn1 | inactive: 2.69% |
| CCC(C)[C@H](NC(=O)[C@@H]1Cc2ccccc2CN1)C(=O)NCc1ccc(OC)cc1 (stereo partly specified) | inconclusive: 35% |

Continuation.

Compound	CPE inhibition
COc1ccc(CNC(=O)C[C@@H]2C=C[C@@H](NC(=O)Nc3ccc4c(c3)OCO4)[C@@H](CO)O2)cc1	inconclusive: 44.6%
C[C@H](CO)N1C[C@H](C)[C@H](CN(C)C(=O)Nc2ccc3c(c2)OCO3)Oc2ncc(C#CCN(C)C)cc2C1=O	inactive: 3.6%
O=C(Nc1ccc(F)cc1F)c1c(C(F)(F)F)ccnc1Oc1ccc(Cl)cc1	inconclusive: 36.1%
COCC(=O)Nc1ccc2c(c1)C(=O)N(C)C[C@@H](OC)[C@@H](C)CN(C(=O)c1cnccn1)[C@@H](C)CO2	inactive: 1.03%
Cc1ccc(S(=O)(=O)N[C@H]2C=C[C@@H](CC(=O)NCCCN(C)C)O[C@H]2CO)cc1	inconclusive: 28.5%
CC(=O)Nc1ccc(S(=O)(=O)N2CCCC(C(=O)N3CCN(c4ccccc4)CC3)C2)cc1 (stereo unspecified)	inconclusive: 21.3%
COCC(=O)N1C[C@@H](C)[C@H](OC)CN(C)C(=O)c2cc(NC(=O)c3ccc(F)cc3)ccc2OC[C@@H]1C	inconclusive: 30.5%
COc1cccc2cc(C(=O)NCCN3CCOCC3)c(=O)oc12	inactive: 5.84%
Cn1c(SCC(=O)c2ccccc2)ncc(C(=O)Nc2ccc(F)cc2)c1=O	inconclusive: 59.4%
COc1ccccc1CN1CC(C(=O)N(C)CCc2ccccn2)CCC1=O (stereo unspecified)	inconclusive: 33.3%
COc1ccc(OC)c(NC(=O)CCN2C(=O)c3cccc([N+](=O)[O-])c3C2=O)c1	inconclusive: 21.3%
CCCNC(=O)[C@H]1[C@H](CO)[C@H]2Cn3c(ccc(-c4ccccc4OC)c3=O)[C@H]2N1CC	inactive: -1.76%
CC(C)(C)Cc1c(-c2ccc(F)cc2)nc2ccc(Cl)cn12	inconclusive: 23.4%
CCCn1c(N)c(C(=O)CSc2nc(C3CC3)n(-c3ccccc3)n2)c(=O)[nH]c1=O	inconclusive: 47.6%
COc1ccccc1CNC(=O)C[C@H]1CC[C@H]2[C@@H](COC[C@@H](O)CN2Cc2cccc(-c3ccncc3)c2)O1	inactive: -1.51%
Cc1cccc(C(O)c2ncc(-c3ccccc3F)[nH]2)c1C (stereo unspecified)	inactive: 5.21%
C[C@H]1CN([C@@H](C)CO)C(=O)c2cc(NC(=O)Nc3ccccc3)ccc2O[C@@H]1CN(C)Cc1ccc(C(F)(F)F)cc1	inactive: 1.69%
CCOc1ccc(CCNC(=O)COC(=O)CNS(=O)(=O)c2ccc(C)cc2)cc1OCC	inactive: 2.27%
C[C@@H]1CN([C@H](C)CO)C(=O)c2cc(NC(=O)Nc3ccc(F)cc3)ccc2O[C@@H]1CN(C)Cc1ccncc1	inactive: 4.2%
O=[N+]([O-])c1ccc(OCn2cncn2)cc1	inconclusive: 26.4%
C=C(CN(C)C)C(=O)c1cc(C)ccc1C	inactive: -0.696%
CCOc1cc(N2CCOCC2)c(OCC)cc1NC(=O)C1CC(=O)N(c2ccccc2OCC)C1 (stereo unspecified)	inconclusive: 38.2%
C[C@H](CO)N1C[C@H](C)[C@@H](CN(C)C(=O)Nc2ccc(F)cc2)Oc2c(NC(=O)c3ccncc3)cccc2C1=O	inconclusive: 21.5%
